These are yes or no findings as the source states them, for the method shown. Binding seen in cells or lysates may run through a third protein. Binding calls can cover weak binding; strength is not graded here.
Biological target: CDH2-Flag (from pCMV2-CDH2-Flag) (UniProt P19022)
Assay: co-IP; lysates of MDA-MB-231 transfected with pCMV2-CDH2 Flag and pcDNA 3.2-Cx43-HA; IP with anti-Flag or IgG; blot with anti-Flag or anti-HA

Amino acid sequences for entries named in this document (tags omitted). A change or cut given only in a name is not applied to a line headed by its entry.
UniProt P19022: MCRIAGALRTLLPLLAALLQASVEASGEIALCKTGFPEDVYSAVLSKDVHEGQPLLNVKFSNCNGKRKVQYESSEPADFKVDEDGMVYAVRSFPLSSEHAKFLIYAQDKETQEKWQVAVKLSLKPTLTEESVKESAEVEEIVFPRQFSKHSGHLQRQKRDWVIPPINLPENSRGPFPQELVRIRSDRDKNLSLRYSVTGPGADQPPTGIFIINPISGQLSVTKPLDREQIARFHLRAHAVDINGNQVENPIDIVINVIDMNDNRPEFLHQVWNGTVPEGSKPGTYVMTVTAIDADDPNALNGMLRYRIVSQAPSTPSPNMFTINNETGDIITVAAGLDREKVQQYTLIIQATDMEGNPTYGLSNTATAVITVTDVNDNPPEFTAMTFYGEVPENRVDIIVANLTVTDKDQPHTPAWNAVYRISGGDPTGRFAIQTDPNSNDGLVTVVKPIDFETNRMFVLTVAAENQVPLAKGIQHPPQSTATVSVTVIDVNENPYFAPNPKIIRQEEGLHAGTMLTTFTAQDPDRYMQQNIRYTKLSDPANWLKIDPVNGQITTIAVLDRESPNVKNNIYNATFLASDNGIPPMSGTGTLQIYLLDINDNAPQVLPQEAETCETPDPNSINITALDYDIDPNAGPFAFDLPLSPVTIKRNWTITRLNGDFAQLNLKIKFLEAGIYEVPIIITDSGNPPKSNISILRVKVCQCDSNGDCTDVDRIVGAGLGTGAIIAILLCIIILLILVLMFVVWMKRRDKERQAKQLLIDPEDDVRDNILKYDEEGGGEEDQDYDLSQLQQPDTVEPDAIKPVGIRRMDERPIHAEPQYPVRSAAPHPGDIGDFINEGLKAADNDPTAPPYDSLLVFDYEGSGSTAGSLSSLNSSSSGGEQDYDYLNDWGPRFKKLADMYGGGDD
UniProt P17302: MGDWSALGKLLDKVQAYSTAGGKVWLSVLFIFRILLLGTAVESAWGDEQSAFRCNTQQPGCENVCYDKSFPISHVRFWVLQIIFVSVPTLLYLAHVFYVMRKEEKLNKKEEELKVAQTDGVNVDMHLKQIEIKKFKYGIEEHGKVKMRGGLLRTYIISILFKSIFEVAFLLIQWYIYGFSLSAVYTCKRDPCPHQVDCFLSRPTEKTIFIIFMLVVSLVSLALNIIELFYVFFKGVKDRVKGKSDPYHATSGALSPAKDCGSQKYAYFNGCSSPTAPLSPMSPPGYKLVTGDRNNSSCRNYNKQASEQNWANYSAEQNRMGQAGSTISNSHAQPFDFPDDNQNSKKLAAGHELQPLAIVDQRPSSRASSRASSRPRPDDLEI

binding: binds
Substance: Cx43-HA (from pcDNA 3.2-Cx43-HA) (from UniProt P17302 1-382)

From paper PMC8200294
